Data from article PMC4368784.
These are yes or no findings as the source states them, for the method shown. Binding seen in cells or lysates may run through a third protein. Binding calls can cover weak binding; strength is not graded here.

The chains behind the UniProt entries cited, without tags or fusion partners. Where a name states a change or a piece, a line headed by the entry shows the natural chain unless it says otherwise.
UniProt Q7S9R0: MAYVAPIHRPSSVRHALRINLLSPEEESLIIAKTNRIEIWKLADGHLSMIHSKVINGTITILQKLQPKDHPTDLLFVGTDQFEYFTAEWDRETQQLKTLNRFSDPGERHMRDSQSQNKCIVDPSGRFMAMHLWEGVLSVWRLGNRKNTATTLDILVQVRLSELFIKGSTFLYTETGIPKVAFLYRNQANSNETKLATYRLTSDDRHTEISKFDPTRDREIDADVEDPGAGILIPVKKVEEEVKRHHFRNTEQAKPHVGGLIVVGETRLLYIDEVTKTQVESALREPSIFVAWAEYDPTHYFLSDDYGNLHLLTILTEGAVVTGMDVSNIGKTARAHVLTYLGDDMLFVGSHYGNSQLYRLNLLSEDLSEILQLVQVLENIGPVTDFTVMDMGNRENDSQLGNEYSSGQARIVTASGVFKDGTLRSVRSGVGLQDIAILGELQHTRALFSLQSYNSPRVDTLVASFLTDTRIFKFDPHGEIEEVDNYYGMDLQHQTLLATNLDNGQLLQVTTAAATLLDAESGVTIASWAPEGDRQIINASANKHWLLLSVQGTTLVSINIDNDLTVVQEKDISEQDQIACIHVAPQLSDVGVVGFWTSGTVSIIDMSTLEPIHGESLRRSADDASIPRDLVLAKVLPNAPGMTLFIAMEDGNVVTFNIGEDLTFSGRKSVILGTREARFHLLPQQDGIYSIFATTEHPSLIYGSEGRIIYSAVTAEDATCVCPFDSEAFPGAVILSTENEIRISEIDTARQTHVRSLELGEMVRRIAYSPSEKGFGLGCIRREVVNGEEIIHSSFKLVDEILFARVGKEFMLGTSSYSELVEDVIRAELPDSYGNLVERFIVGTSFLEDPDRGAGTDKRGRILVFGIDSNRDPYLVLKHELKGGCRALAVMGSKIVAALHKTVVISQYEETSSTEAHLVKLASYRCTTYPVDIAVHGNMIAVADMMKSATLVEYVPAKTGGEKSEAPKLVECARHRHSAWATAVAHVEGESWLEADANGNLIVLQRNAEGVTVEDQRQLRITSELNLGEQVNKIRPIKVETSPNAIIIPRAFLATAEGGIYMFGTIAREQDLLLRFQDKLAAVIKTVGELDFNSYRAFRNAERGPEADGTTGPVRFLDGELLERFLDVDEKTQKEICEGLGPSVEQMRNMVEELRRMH

Target: DDB1-3xFLAG (N. crassa) (UniProt Q7S9R0)
Assay: co-IP; anti-FLAG immunoprecipitation of 3xFLAG-tagged DCDC members from nuclei of dim-3+ (WT) and dim-3 N. crassa strains; partner detected by western blot and normalised to bait level

B1: DIM-9-3xHA (protein, UniProt Q7RVP2 1-943)
chain: MNSRPGDPARDPLTNGSSIAPGNTQSHGFLVEAQQRHQPDNLEHPPFKRQRTETVPATAPTINNQIQQNGNSQTVPHWGRQDVFIQCLANQVFPHVDRELANLPRDKYDVQKIGTKVVEIVTGADFTAAYKLGNGRVSDAFERLLAARIPVETRALLMLPEYRFKSYTPVPVPKVPPVLAPPQAPSGYASAPLPPPPPRPGSAIAPTFPAADERRYSNSPIPLPAVPGRQEAYRGVNPPSGLRYPHAPVPSHATTGIHRPTILPPPPSTQVITIKDDDEEKQGKGTPSAAITVPQPNSTVRPPMVLDPPSASVTQPSVSNLPVDLPENFVSEPRRRGRVSRWRKRVEEEQRPQNRGIVTTSAQNYRSRAHALVWRGHEDSVDSRGLSSRLFSEAKRPYLSAEQRANISAGVQGFVRFDDSVVPRPTIFHVDFTADEIKALRNLCRRVLGLSSGSRKQDLAKDLRKQLKKHRGDIVKVLDAIRSESELSHRNRTDVERFLHDLVNHKVAGNPSILALKRDKYDLHGELARSSQINSLLFARETSGNRGMALRAPLNFPNEFVKCREDELELRREWTDCAGDIATIAWVSNDGFICGTTEHSDAHNQQYNKPGNLVLGSCSQGTLRAYPDHRIVRPVVEKGENSTDAMRQSQDPWLYSSVVSSDYDDVHGRAFTSGFDRKVKVWKVDPSGSSMVLLGEWSHGGNVNFVAASNPIQTLDCWALDINELTVMPISFGSCYITAGCTDGITYVWDTAQGDKPIHTLRHGEPIEEFRGDREHEDVGVKFTAWGRTLDRFYTGSSDGVVKVWNLPDRTLGVVQGPNYVETGLYRREAHLDEDPRLPLKASFNGLQQETRRQFSEGVRRYLSPLRSITKESFLKAKEAHFTNLPLDFSVDLLEEETKQALEAEGVDWQLNEGTLDLVYEDDENDNEDLVSSGANGSDIDEF
With B1 the binding was “binds”.
